Test results taken from PMC7709239.
These are yes or no findings as the source states them, for the method shown. In cells and extracts the contact can be indirect. Some results given as binding are weak or reduced against the parent protein; the word gives no strength. For part of these data: Sequences can lack the tags named with a protein.

By UniProt entry, the sequences of proteins in these tests, tags left out.
UniProt P08758: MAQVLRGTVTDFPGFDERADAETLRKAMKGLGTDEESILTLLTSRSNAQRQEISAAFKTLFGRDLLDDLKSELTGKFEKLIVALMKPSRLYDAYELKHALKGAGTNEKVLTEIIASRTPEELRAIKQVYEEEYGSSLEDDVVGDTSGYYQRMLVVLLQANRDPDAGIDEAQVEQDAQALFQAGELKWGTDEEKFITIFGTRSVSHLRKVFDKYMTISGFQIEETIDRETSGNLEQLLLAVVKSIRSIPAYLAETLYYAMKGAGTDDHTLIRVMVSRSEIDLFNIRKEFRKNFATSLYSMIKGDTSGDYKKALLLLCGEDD
UniProt Q702N8: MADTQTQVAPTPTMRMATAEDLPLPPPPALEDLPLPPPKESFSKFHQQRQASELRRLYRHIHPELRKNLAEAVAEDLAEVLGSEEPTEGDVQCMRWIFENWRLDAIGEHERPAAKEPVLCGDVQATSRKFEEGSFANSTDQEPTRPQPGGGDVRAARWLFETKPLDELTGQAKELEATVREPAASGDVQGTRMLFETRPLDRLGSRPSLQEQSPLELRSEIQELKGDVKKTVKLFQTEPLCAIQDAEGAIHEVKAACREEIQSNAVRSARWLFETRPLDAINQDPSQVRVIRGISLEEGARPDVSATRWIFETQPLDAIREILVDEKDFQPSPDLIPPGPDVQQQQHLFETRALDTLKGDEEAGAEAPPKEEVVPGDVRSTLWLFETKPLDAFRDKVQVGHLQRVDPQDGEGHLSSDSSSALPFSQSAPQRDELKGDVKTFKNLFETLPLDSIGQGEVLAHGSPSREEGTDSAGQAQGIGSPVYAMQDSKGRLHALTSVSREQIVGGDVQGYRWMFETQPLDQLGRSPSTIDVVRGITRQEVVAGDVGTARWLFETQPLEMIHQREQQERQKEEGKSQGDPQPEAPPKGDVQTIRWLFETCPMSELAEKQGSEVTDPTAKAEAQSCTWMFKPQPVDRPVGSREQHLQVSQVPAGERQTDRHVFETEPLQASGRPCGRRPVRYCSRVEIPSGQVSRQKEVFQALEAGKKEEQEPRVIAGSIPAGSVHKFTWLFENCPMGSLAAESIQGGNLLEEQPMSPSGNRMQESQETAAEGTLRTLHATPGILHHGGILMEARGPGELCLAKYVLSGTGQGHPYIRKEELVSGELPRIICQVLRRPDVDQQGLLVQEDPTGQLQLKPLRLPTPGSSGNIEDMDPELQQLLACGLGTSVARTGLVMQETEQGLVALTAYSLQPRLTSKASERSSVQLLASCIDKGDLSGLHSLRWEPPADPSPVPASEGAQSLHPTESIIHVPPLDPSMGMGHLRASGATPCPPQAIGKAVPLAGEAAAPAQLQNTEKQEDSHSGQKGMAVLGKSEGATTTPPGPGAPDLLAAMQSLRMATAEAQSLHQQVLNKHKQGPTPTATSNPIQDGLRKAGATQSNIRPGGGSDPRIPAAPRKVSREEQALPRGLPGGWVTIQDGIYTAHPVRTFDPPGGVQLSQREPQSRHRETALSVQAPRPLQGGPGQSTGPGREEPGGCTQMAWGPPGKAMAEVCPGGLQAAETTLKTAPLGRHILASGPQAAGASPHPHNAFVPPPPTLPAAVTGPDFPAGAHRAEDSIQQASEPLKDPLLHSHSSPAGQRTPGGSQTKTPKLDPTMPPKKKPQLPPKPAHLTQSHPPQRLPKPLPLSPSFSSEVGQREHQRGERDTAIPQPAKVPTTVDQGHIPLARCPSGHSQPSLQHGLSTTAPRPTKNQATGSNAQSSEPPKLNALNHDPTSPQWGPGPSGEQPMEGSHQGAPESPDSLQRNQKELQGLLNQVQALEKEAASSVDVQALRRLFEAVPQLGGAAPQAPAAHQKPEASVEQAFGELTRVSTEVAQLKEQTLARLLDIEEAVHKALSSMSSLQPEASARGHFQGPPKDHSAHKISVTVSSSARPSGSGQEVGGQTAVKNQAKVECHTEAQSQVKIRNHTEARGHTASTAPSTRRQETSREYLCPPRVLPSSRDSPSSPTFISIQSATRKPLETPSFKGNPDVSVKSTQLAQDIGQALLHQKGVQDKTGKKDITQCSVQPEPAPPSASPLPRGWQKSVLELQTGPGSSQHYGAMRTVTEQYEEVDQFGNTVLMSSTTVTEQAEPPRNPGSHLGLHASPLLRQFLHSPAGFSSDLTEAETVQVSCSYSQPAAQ

Legend:
[1] = molecular target: T1, GST-mouse Popdc1 (aa 114 to 357) fusion protein (mouse) (UniProt Q9ES83); test: pull-down; glutathione beads loaded with recombinant GST-POPDC bait, incubated with human myotube extract in RIPA buffer; western blot of the pulled-down proteins; control: unloaded beads; only the target purified
T1 sequence: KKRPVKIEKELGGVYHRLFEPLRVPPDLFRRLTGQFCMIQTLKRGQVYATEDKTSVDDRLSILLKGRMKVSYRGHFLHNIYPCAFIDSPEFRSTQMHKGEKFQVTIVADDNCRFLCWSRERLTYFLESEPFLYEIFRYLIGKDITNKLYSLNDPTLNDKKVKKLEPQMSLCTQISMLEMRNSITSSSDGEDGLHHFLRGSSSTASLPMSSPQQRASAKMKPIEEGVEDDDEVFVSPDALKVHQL

[2] = molecular target: T2, Popeye domain-containing protein 1 (human, endogenous) (human (endogenous in human myotubes)) (UniProt Q8NE79); test: co-IP; Pan Mouse IgG Dynabeads loaded with mAb 1C12 against POPDC1, incubated with human myotube extract in RIPA buffer for 1 h; western blot with XIRP1 mAb; control: unloaded beads
T2 sequence: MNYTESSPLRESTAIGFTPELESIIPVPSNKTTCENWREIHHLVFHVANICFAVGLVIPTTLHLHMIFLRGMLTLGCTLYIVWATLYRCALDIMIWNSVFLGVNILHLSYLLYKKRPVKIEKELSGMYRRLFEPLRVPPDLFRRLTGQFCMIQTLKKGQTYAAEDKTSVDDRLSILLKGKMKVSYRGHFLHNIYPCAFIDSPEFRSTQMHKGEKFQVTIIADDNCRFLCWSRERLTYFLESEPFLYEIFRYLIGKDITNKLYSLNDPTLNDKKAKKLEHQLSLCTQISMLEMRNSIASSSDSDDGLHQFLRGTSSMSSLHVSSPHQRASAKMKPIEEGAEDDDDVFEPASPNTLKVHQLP

In the case of Annexin A5 (from UniProt P08758 1-320), the binding [1] is reported as “binds”.
For “Xin actin-binding repeat-containing protein 1 (from UniProt Q702N8 1-1843)”, the binding [2] was “binds” and the binding [1] was “binds”.
